In PubChem BioAssay AID2685 (National Center for Advancing Translational Sciences (NCATS), 2010):
The other results are listed elsewhere or left out. Further columns of the screen follow, without active or inactive calls. The list favours compounds with an active or inconclusive main result. Potencies come from curve fits of mixed quality, noted in brackets.

Assay: qHTS Assay for Lipid Storage Modulators in Drosophila S3 Cells;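 as to cell number change: cells counted by Cell Tracker Red CMTPX staining in the red channel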
Conditions: BODIPY lipid droplet fluorescence, 18-24 h; for cell number change: measured here: cell count max response, cells fed with added oleic acid
Outline: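 Drosophila S3 cells loaded with oleic acid (400 uM, as added) and compounds at several concentrations; lipid droplets imaged by 488-nm laser-scanning cytometry, 500–530 nm intensity and object ratio to cell channel. Percent activity normalized to 20 uM Triacsin C.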

[1] = measured here: cell number channel AC50, cells fed with added oleic acid
[2] = measured here: lipid fluorescence (Fed channel) AC50, cells fed with added oleic acid

Compound | cell number change [%] | AC50 [1] | AC50 [2]
CC(C)CC1(C)NC(=O)N(CC(=O)N2C(C)CCCC2C)C1=O (stereo not given) | 24.9 | 820 nM [falling, full curve] | –
CN1CCN(C(=O)c2ccc(CSc3ccc(Cl)cc3)cc2)CC1 | -17.3 | – | 29100 nM [falling, single point]
O=[N+]([O-])c1ccc(Cl)c(S(=O)(=O)NC2=NCCC2)c1 | 9 | – | –
Cc1ncoc1C(=O)N1CCCC(C(=O)c2ccc(-c3ccccc3)c(F)c2)C1 (stereo not given) | -25.6 | – | 29100 nM [falling, single point]
CC(C)(C)c1[nH]nc2c1C(Cc1ccccc1)C(C#N)=C(N)O2 (stereo not given) | – | – | 6510 nM [falling, single point]
O=C(COC(=O)c1ccc([N+](=O)[O-])o1)Nc1cccc(S(=O)(=O)N2CCCCC2)c1 | -13 | – | 580 nM [falling, single point]
CS(=O)(=O)N(CC(=O)Nc1ccc(F)cc1F)C1CCCCC1 | 10.4 | – | –
CCOc1ccc(-n2nnc3c(=O)n(CC(=O)c4ccccc4)cnc32)cc1 | 16.1 | – | 731 nM [rising, full curve]
COC(=O)c1ccccc1S(=O)(=O)C(C)(C)C | 12.2 | – | 1460 nM [rising, partial curve, poor fit]
O=c1c2ccccc2nnn1CSc1nnc(Nc2ccccc2)s1 | 0.209 | – | 2060 nM [rising, single point]
c1ccc(C(Cc2nc(-c3cccnc3)no2)c2ccccc2)cc1 | 20 | – | 1840 nM [rising, partial curve]
N#Cc1ccc(NC(=O)COC(=O)CCNS(=O)(=O)c2ccccc2)cc1 | 24.1 | – | 6510 nM [falling, single point]
COc1ccccc1NC(=O)C(C)Sc1nnnn1C (stereo not given) | -9.14 | – | –
O=C(Nc1nnc(-c2cccs2)o1)c1cc(-c2ccccc2)nc2ccccc12 | 13.4 | 2060 nM [rising, single point] | –
O=[N+]([O-])c1ccc(N2CCN(S(=O)(=O)c3ccc(Cl)cc3)CC2)cc1NCc1cccnc1 | – | 820 nM [rising, full curve] | 820 nM [rising, full curve, poor fit]
O=C(NNc1cc(N2CCCC2)nc(N2CCCC2)n1)c1ccc([N+](=O)[O-])cc1 | -31.9 | 23100 nM [falling, single point] | 23100 nM [falling, single point]
COc1cccc(NC(=O)COC(=O)CCCC2=NS(=O)(=O)c3ccccc3N2)c1 | – | – | 29100 nM [rising, single point]

Single values from above:
O=C(NNc1cc(N2CCCC2)nc(N2CCCC2)n1)c1ccc([N+](=O)[O-])cc1 – AC50 [2]: 23100 nM [falling, single point]
CS(=O)(=O)N(CC(=O)Nc1ccc(F)cc1F)C1CCCCC1 – cell number change [%]: 10.4
